These are yes or no findings as the source states them, for the method shown. In cells and extracts the contact can be indirect. Some binding calls cover weakened binding; strength is not graded here.
Molecular target: Luc-tagged rat AT1a receptor (rAT1aR-Renilla Luc), WT, full length (rat) (UniProt P25095)
Test: FRET or BRET; BRET1 in live HEK293 cells co-transfected with Luc-tagged AT1R and YFP-β-arrestin2, with or without overexpressed Gαq; dose-response to Ang II

Chains of the proteins cited; added tags and fusions are not shown.
UniProt P25095: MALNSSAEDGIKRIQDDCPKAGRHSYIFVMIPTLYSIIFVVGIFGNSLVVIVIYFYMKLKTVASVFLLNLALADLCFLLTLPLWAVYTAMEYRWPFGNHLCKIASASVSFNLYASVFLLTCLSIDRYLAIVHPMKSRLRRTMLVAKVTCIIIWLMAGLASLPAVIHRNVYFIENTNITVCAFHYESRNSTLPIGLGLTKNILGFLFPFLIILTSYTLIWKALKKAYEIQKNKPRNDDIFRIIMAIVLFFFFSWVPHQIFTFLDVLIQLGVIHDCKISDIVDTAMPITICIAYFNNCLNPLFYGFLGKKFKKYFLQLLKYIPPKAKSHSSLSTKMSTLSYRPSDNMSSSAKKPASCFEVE

“YFP-β-arrestin2 (from UniProt P32121 1-409)” was tested, and the binding was “binds”.
